Experimental data: PubChem BioAssay AID743458 (Peter MacCallum Cancer Centre, 2014)

Test: 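Retest earlier hits with independent siRNAs per gene for restoring vorinostat sensitivity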 (follow-up of hits)
Cells: human HCT116-VR colon cancer cells made resistant to vorinostat
Reagents: single siRNA or pool against human genes, 25 nM per single siRNA
Time to read-out: about 72 h after transfection, including 24 h of drug
Challenge: vorinostat, 2.5 µM final, for 24 h
Measurement: 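Live-cell fluorescent viability and luminescent caspase 3/7 activity after vorinostat treatment, background subtracted, mean of duplicate plates, as fold change over mock-transfected wells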
Direction: viability relative to mock: higher = more living cells than mock; caspase activity relative to mock: higher = more apoptosis than mock
Active means: 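Active means a reduced-viability or caspase-activation class, anything else inactive; classes could only be given to wells that looked healthy when left untreated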
Here is a random part of about 1,800 reagents. 732 of them (41%) were called active. 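Calls are per siRNA reagent; a gene was deemed confirmed only if most of its four siRNAs scored.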 The numbers tell different reagents against one gene apart. Reagent sequences are not shown.

Knock-down of OGDH #1 resulted in: viability relative to mock 0.62; caspase activity relative to mock 2.4; viability hit class no change; caspase hit class no change; inactive.
With knock-down of OGDH #2 the results were viability relative to mock 0.63; caspase activity relative to mock 1.15; viability hit class no change; caspase hit class no change; inactive.
Depletion of OGDH #3 came out at: viability relative to mock 0.28; caspase activity relative to mock 3.34; viability hit class reduced viability; caspase hit class caspase activation; active.
After knock-down of OGDH #4, the record shows viability relative to mock 0.7; caspase activity relative to mock 1; viability hit class no change; caspase hit class no change; inactive.
With knock-down of CHRNA7 #1 the results were viability relative to mock 0.52; caspase activity relative to mock 0.72; viability hit class reduced viability; caspase hit class no change; active.
Against CHRNA7 #2, the values are viability relative to mock 1; caspase activity relative to mock 1.34; viability hit class no change; caspase hit class no change; inactive.
CHRNA7 #3 scored viability relative to mock 0.85; caspase activity relative to mock 0.84; viability hit class no change; caspase hit class no change; inactive.
Knock-down of CHRNA7 #4 gave: viability relative to mock 1.02; caspase activity relative to mock 0.94; viability hit class no change; caspase hit class no change; inactive.

Records listed so far whose target name begins with C or c:
CHRNA7 #1 | viability relative to mock = 0.52; caspase activity relative to mock = 0.72; viability hit class = reduced viability; caspase hit class = no change; activity call = active
CHRNA7 #2 | viability relative to mock = 1; caspase activity relative to mock = 1.34; viability hit class = no change; caspase hit class = no change; activity call = inactive
CHRNA7 #3 | viability relative to mock = 0.85; caspase activity relative to mock = 0.84; viability hit class = no change; caspase hit class = no change; activity call = inactive
CHRNA7 #4 | viability relative to mock = 1.02; caspase activity relative to mock = 0.94; viability hit class = no change; caspase hit class = no change; activity call = inactive

More records follow.
CDC25C #1 scored viability relative to mock 0.3; caspase activity relative to mock 1.38; viability hit class reduced viability; caspase hit class no change; active.
After knock-down of CDC25C #2, the record shows viability relative to mock 0.94; caspase activity relative to mock 0.89; viability hit class no change; caspase hit class no change; inactive.
Silencing of CDC25C #3 resulted in: viability relative to mock 0.87; caspase activity relative to mock 0.86; viability hit class no change; caspase hit class no change; inactive.
After knock-down of CDC25C #4, the screen gave viability relative to mock 0.74; caspase activity relative to mock 1.25; viability hit class no change; caspase hit class no change; inactive.
INTS6 #1 showed viability relative to mock 0.95; caspase activity relative to mock 1.22; viability hit class no change; caspase hit class no change; inactive.
INTS6 #2 showed viability relative to mock 0.64; caspase activity relative to mock 3.58; viability hit class no change; caspase hit class caspase activation; active.
After knock-down of INTS6 #3, the screen gave viability relative to mock 0.74; caspase activity relative to mock 7.71; viability hit class no change; caspase hit class caspase activation; active.
For INTS6 #4, the values are viability relative to mock 0.75; caspase activity relative to mock 2.17; viability hit class no change; caspase hit class no change; inactive.
